Measured values taken from patent publication US20150305372A1, “FEED INTAKE OF RUMINANTS USING GREEN FODDER FLAVORS” (BASF SE, priority 2014, published 2015).

System: dairy cows having a high milk performance (German Holstein cattle)
Test: Feeding study of trans-hex-2-enal and hexanal on feed intake, feed intake behavior, milk performance and milk composition of dairy cows
Format: in vivo
Details: 4.3 g/cow/day in TMR, LSQ means; for BFT (Back Fat Thickness): control 0.96; for MUN (milk-urea-nitrogen): control 239; for Body weight: control 670
Description: The purpose of the present study is to establish whether 4.3 g/cow/day of trans-hex-2-enal or 4.3 g/cow/day of hexanal affect the DMI value, the milk performance, the milk composition or the feed intake behavior (duration, frequency, etc.) of dairy cows.
The start of the study was calendar week 18 of the experimental year and the end of the study was calendar week 24 of the same year. The feed consumption was determined by means of feed troughs with electronic weight determination, produced by Insentec B.V. (Marknesse, Netherlands). The system identifies each animal by scanning the respective transponder on the neck band of the respective cow using a light barrier. After identification, the animal is allowed free access to the feed trough and the amount of feed taken in on each visit to the trough is recorded automatically.
The system thus determines all visits of each cow to the feed trough, the respective feed intake and the duration of the respective visit. The feed troughs were filled once a day at about 06.30 hours in the morning with an amount of about 70 kg of feed, after the residual feed of the previous day had been removed. During the morning milking, the feed troughs were closed for cleaning for a period of 20 to 30 minutes.
The milk yield was determined individually during each milking process and recorded by the Herd Management Software DairyPlan C21 (GEA Farm Technologies, Boenen, Germany). The cows were milked twice daily at 05.00 hours in the morning and 15.30 hours in the afternoon. Fresh water was freely available at all times.
Every Monday, after each milking, milk samples were taken and, for each cow, the milk composition (fat, protein, somatic cell count) was determined. The energy-corrected milk value (ECM) was determined according to the following equation: […]
All of the cows received a total mixed ration (TMR) (table 2) having a calculated mean daily feed intake of 22 kg of dry matter (DM). Trans-hex-2-enal and hexanal were added to the TMR and thus fed by a premix with wheat bran (trans-hex-2-enal/wheat bran for group A and hexanal/wheat bran for group B).
Samples of the TMR were withdrawn daily from each of the rations, combined to form a weekly sample and frozen until determination of the DM content of the TMRs. Samples of all feed components were taken every 14 days, frozen and pooled over the entire feeding trial up until laboratory analysis.
A standard model for statistical analysis using all parameters was adapted to the weekly data. This is a general, linear, mixed model with the cow as a chance effect and containing the following co-variables:
For the treatment effect, an “overall” P value was presented, and also a P value for the differences between the groups, which were tested both adapted and also non-adapted by means of the Tukey test.

SMILES	BFT (Back Fat Thickness) [cm]	MUN (milk-urea-nitrogen) [mg/L]	Body weight [kg]
CCC/C=C/C=O [Trans-hex-2-enal]	0.93	236	671
CCCCCC=O [Hexanal, hexanal]	0.92	241	653
